Experimental data taken from US20190033295A1.
These are yes or no findings as the source states them, for the method shown. In cells and extracts the contact can be indirect. Some results given as binding are weak or reduced against the parent protein; the word gives no strength. Sequences can lack the tags named with a protein.

Protein sequences, listed by entry. Tags and fused reporters are not part of them. Lines headed by an entry give the natural chain unless they say otherwise; changes in a name come on top.
UniProt P0DMV8: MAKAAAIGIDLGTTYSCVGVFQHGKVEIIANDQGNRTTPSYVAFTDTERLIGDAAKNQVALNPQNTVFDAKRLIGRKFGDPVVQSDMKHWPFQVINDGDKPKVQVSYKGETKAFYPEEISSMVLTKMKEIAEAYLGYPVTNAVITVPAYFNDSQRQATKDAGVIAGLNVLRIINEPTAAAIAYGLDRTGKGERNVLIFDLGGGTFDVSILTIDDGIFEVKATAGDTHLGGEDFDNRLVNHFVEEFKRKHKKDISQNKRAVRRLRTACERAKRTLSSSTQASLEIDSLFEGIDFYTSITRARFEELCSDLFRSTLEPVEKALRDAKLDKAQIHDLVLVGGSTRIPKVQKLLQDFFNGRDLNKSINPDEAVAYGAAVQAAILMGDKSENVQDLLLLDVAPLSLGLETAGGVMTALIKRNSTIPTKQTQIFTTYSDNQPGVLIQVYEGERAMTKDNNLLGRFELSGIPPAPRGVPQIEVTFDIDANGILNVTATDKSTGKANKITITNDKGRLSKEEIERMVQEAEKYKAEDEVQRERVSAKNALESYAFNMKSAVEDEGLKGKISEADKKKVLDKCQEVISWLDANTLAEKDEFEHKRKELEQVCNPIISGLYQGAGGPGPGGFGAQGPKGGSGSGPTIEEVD

Target: GFP-HSP70 (human) (UniProt P0DMV8)
Experiment: GST pull-down with 293T lysate overexpressing GFP-HSP70, western blot with GFP antibody

B1: GST-AIMP2-DX2 fragment DM1 (protein, not shown: a dimerising Fc or GST)
chain: MPMYQVKPYHGGGAPLRVELPTCMYRLPNVHGRSYGPAPGAGHVQDYGALKDIVINANPASPPLSLLVLHRLLCEHFRVLSTVHTHS
  binding: binds
